Results are given in words; binding and its absence hold for the method and conditions named. In cells and extracts the contact can be indirect. Some binding calls cover weakened binding; strength is not graded here.
Biological target: Tpr (translocated promoter region), endogenous (human (endogenous in U-2 OS)) (UniProt P12270)
Assay: co-IP; standard coimmunoprecipitation assay; benzonase-treated lysate, 20 mM Tris pH 8.0, 150 mM NaCl, 0.5% NP40, 1 mM EDTA, 1 mM MgCl2; GFP-Trap or Protein G-Sepharose with antibodies, overnight at 4 °C; which was used is not told in the text shown

Amino acid sequences for entries named in this document (tags omitted).
UniProt P12270: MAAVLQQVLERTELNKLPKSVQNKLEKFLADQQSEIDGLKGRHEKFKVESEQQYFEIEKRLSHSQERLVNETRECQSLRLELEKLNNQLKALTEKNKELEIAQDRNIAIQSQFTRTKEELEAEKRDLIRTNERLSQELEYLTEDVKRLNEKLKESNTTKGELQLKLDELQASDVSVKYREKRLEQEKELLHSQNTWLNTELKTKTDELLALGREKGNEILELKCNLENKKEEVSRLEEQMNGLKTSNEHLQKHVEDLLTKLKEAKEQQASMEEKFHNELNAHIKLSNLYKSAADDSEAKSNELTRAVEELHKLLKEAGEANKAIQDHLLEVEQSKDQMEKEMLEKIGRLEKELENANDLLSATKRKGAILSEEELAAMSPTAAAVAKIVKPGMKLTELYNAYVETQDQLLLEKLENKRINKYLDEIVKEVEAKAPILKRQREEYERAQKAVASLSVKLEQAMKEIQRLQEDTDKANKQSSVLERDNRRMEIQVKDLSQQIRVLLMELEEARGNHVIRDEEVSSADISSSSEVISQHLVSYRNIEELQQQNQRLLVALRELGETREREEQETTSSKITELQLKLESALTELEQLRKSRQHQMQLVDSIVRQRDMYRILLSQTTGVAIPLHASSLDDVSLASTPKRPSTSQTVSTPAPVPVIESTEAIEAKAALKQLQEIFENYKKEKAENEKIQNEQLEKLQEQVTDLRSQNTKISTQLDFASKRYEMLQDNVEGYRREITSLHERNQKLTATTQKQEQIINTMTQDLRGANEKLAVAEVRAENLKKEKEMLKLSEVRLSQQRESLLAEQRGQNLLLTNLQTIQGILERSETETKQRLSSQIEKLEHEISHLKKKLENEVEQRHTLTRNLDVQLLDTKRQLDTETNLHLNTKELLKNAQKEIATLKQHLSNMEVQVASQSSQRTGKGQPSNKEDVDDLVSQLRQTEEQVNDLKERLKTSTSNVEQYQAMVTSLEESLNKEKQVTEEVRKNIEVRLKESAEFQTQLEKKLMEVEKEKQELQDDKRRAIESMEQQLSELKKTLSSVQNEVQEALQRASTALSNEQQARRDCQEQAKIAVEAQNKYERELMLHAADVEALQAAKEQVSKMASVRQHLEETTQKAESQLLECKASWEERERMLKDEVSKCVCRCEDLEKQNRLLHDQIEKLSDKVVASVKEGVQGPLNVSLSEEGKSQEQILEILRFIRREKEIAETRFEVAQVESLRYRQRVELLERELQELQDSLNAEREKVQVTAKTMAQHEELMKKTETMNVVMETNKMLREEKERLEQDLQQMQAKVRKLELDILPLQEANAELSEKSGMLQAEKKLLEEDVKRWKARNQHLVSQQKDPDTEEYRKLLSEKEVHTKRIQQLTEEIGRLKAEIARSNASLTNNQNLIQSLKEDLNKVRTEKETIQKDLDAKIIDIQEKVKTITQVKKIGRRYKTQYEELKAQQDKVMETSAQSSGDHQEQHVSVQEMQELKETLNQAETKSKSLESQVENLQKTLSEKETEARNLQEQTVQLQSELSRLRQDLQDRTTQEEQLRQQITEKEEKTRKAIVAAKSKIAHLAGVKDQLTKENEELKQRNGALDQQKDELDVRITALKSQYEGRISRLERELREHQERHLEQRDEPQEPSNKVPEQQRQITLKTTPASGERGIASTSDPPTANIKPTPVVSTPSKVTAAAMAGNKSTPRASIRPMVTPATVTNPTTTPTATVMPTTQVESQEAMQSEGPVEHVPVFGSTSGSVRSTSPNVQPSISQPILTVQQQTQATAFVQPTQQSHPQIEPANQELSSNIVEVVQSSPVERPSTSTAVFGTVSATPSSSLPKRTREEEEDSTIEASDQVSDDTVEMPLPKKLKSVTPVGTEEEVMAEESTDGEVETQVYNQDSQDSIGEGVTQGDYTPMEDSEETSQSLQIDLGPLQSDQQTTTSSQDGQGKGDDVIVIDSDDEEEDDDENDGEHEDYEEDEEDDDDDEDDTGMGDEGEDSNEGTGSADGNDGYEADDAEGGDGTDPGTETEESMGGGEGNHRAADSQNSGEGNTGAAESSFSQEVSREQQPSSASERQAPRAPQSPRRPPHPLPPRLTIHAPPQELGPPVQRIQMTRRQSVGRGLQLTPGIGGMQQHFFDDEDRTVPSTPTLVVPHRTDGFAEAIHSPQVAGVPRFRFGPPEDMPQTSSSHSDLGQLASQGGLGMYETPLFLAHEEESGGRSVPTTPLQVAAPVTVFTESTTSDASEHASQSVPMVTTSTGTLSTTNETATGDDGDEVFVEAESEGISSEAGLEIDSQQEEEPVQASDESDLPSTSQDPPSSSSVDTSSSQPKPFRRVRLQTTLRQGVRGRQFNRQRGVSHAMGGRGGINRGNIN
UniProt O60318: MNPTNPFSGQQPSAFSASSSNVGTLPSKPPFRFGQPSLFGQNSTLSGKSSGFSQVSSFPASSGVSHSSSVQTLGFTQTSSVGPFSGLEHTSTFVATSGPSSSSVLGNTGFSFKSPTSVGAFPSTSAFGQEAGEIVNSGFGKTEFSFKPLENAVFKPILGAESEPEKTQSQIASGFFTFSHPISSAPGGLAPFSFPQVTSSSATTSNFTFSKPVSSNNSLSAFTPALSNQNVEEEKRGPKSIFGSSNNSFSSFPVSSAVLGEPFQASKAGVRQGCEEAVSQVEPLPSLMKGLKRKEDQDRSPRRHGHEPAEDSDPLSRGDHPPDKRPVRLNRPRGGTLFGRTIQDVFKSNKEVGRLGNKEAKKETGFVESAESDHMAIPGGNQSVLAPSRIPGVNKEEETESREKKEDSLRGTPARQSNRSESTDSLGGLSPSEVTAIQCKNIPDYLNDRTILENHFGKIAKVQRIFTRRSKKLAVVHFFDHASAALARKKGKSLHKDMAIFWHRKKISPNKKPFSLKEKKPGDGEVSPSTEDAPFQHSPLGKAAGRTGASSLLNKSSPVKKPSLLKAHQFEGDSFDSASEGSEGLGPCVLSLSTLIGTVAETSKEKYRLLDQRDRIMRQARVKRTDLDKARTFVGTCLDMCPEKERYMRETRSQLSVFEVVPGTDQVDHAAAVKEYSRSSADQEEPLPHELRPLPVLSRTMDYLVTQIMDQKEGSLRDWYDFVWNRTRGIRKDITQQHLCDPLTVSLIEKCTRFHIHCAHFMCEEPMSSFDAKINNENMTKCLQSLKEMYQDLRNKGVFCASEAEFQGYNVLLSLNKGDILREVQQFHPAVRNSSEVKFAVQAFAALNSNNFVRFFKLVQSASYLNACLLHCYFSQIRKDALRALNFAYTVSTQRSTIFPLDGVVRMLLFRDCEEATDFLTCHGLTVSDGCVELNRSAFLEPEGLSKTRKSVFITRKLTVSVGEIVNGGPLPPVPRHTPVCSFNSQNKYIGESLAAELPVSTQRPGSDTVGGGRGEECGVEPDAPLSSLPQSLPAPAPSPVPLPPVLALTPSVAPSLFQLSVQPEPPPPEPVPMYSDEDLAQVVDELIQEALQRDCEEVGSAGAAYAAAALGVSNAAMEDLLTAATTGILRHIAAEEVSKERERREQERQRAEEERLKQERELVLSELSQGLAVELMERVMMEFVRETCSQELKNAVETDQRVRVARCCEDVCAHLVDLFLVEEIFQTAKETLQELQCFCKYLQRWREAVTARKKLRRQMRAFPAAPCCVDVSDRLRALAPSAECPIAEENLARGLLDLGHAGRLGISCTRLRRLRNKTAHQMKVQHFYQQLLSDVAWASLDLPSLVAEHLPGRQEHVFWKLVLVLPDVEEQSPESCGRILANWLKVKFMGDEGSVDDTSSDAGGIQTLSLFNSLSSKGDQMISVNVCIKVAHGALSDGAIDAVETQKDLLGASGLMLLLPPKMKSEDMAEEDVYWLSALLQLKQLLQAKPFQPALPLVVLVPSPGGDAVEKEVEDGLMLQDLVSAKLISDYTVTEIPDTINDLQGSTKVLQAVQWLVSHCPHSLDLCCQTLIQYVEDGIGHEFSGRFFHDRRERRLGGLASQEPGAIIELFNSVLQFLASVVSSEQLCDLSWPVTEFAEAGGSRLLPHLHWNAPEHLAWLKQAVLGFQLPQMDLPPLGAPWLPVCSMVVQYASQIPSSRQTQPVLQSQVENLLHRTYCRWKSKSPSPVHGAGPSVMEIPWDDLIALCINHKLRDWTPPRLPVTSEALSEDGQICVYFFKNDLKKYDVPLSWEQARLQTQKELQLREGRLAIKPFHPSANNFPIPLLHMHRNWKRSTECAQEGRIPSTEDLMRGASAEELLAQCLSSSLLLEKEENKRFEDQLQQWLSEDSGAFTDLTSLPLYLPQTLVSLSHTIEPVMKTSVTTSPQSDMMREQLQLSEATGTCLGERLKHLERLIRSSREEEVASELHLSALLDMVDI

Row | binding | Molecule
1 | binds | Minichromosome maintenance complex component 3 associated protein (from UniProt O60318 1-1980)
2 | binds | Matrin 3 (protein, UniProt P43243 1-847) MSKSFQQSSLSRDSQGHGRDLSAAGIGLLAAATQSLSMPASLGRMNQGTARLASLMNLGMSSSLNQQGAHSALSSASTSSHNLQSIFNIGSRGPLPLSSQHRGDADQASNILASFGLSARDLDELSRYPEDKITPENLPQILLQLKRRRTEEGPTLSYGRDGRSATREPPYRVPRDDWEEKRHFRRDSFDDRGPSLNPVLDYDHGSRSQESGYYDRMDYEDDRLRDGERCRDDSFFGETSHNYHKFDSEYERMGRGPGPLQERSLFEKKRGAPPSSNIEDFHGLLPKGYPHLCSICDLPVHSNKEWSQHINGASHSRRCQLLLEIYPEWNPDNDTGHTMGDPFMLQQSTNPAPGILGPPPPSFHLGGPAVGPRGNLGAGNGNLQGPRHMQKGRVETSRVVHIMDFQRGKNLRYQLLQLVEPFGVISNHLILNKINEAFIEMATTEDAQAAVDYYTTTPALVFGKPVRVHLSQKYKRIKKPEGKPDQKFDQKQELGRVIHLSNLPHSGYSDSAVLKLAEPYGKIKNYILMRMKSQAFIEMETREDAMAMVDHCLKKALWFQGRCVKVDLSEKYKKLVLRIPNRGIDLLKKDKSRKRSYSPDGKESPSDKKSKTDGSQKTESSTEGKEQEEKSGEDGEKDTKDDQTEQEPNMLLESEDELLVDEEEAAALLESGSSVGDETDLANLGDVASDGKKEPSDKAVKKDGSASAAAKKKLKKVDKIEELDQENEAALENGIKNEENTEPGAESSENADDPNKDTSENADGQSDENKDDYTIPDEYRIGPYQPNVPVGIDYVIPKTGFYCKLCSLFYTNEEVAKNTHCSSLPHYQKLKKFLNKLAEERRQKKET

Reference: PMC8225803
